Laboratory results: PubChem BioAssay AID1053208 (Peter MacCallum Cancer Centre, 2014)

Screen: 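Genes whose silencing cuts survival of bone tumour cells only with doxorubicin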 (primary screen)
Cell system: mouse osteosarcoma cells, early-passage culture from an engineered mouse model of fibroblastic bone tumour
Reagent: siRNA pool against mouse genes, 40 nM
Duration: about 120 h (48 h before drug, then 72 h with drug)
Challenge: doxorubicin 100 nM for 72 h, roughly 30-40% inhibitory dose
Read-out: 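Luminescent ATP signal taken as viability with or without 100 nM doxorubicin for 72 h; mean of two wells set against non-targeting siRNA and turned into robust z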
Direction: viability z-score with doxorubicin and doxorubicin viability vs non-targeting: higher = more viable cells under doxorubicin; viability z-score without drug: higher = more viable cells with knock-down alone; z-score of drug to no-drug ratio: higher = less drug sensitisation by knock-down
Rule for the call: 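a pool counts as active when its viability z-score with doxorubicin is -2 or below and its z-score without drug lies between -2 and 2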
In all, the deposit lists about 17,000 reagents; this is an unselected part. Of all reagents, 788 (4.7%) were called active. 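Calls rest on z-score classes alone; an extra cut-off of viability at most 70% of control was not applied to them.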 Some reagents were tested in more than one well and are listed for each.

target gene | combined z-score class | viability z-score with doxorubicin | viability z-score without drug | z-score of drug to no-drug ratio | doxorubicin viability vs non-targeting | Outcome
Mettl21a (GeneID 67099) | no change with or without drug | 1.46 | 0.51 | 1.24 | 1.07 | inactive
B2m (GeneID 12010) | no change with or without drug | 0.45 | 0.17 | 0.45 | 0.98 | inactive
4930539J05Rik (GeneID 319587) | no change with or without drug | 0.22 | 0.51 | 0 | 0.96 | inactive
Jkamp (GeneID 104771) | high cell count without drug only | -0.22 | 2.19 | -1.46 | 0.92 | inactive
Myf6 (GeneID 17878) | no change with or without drug | 1.8 | -0.51 | 2.47 | 1.1 | inactive
Rcvrn (GeneID 19674) | no change with or without drug | -0.56 | 0.17 | -0.56 | 0.89 | inactive
Hsdl2 (GeneID 72479) | no change with or without drug | 0.34 | 0.67 | 0 | 0.97 | inactive
Scaf11 (GeneID 72193) | low cell count without drug only | -1.35 | -2.02 | 0.11 | 0.82 | inactive
Spag1 (GeneID 26942) | no change with or without drug | -1.12 | -0.84 | -0.56 | 0.84 | inactive
Senp3 (GeneID 80886) | no change with or without drug | -0.79 | -0.84 | -0.11 | 0.87 | inactive
Meg3 (GeneID 17263) | no change with or without drug | -0.22 | 0.17 | -0.22 | 0.92 | inactive
Dcaf17 (GeneID 75763) | no change with or without drug | 1.12 | -0.17 | 1.46 | 1.04 | inactive
Calcb (GeneID 116903) | no change with or without drug | 1.12 | 0.17 | 1.12 | 1.04 | inactive
Arhgef10 (GeneID 234094) | no change with or without drug | -0.22 | 0.84 | -0.67 | 0.92 | inactive
Mus81 (GeneID 71711) | no change with or without drug | -0.22 | 0 | -0.11 | 0.92 | inactive
Dach1 (GeneID 13134) | no change with or without drug | 0.11 | 0.84 | -0.34 | 0.95 | inactive
Gjd3 (GeneID 353155) | no change with or without drug | 0 | 0.84 | -0.45 | 0.94 | inactive
Lamb3 (GeneID 16780) | no change with or without drug | 0 | 0 | 0.11 | 0.94 | inactive
Sgca (GeneID 20391) | no change with or without drug | 0.34 | -0.17 | 0.56 | 0.97 | inactive
Emc4 (GeneID 68032) | no change with or without drug | 0.22 | 0.51 | 0 | 0.96 | inactive
Or12d13 (GeneID 258830) | high cell count with doxorubicin only | 2.36 | -0.84 | 3.37 | 1.15 | inactive
Il6st (GeneID 16195) | no change with or without drug | -0.34 | 0.17 | -0.34 | 0.91 | inactive
Pole2 (GeneID 18974) | low cell count with doxorubicin only | -3.37 | -0.84 | -3.04 | 0.64 | active
Pcdha6 (GeneID 12937) | no change with or without drug | -1.8 | -1.18 | -1.01 | 0.78 | inactive
Tmem154 (GeneID 320782) | no change with or without drug | 1.91 | 0.51 | 1.69 | 1.11 | inactive
E4f1 (GeneID 13560) | no change with or without drug | -0.22 | -1.52 | 1.01 | 0.92 | inactive
Or1ak2 (GeneID 258617) | no change with or without drug | -1.24 | -0.34 | -1.01 | 0.83 | inactive
Cnih1 (GeneID 12793) | no change with or without drug | -1.35 | -0.17 | -1.24 | 0.82 | inactive
Cyth3 (GeneID 19159) | no change with or without drug | 0.34 | -0.84 | 1.12 | 0.97 | inactive
Kif1b (GeneID 16561) | no change with or without drug | -1.8 | -0.17 | -1.69 | 0.78 | inactive
Mlxip (GeneID 208104) | high cell count with doxorubicin only | 2.59 | 1.69 | 1.46 | 1.17 | inactive
Xxylt1 (GeneID 268880) | no change with or without drug | 1.35 | -1.01 | 2.36 | 1.06 | inactive
2310057J18Rik (GeneID 67719) | low cell count with doxorubicin only | -2.47 | 0.17 | -2.59 | 0.72 | active
Usf1 (GeneID 22278) | no change with or without drug | 0.22 | 0.84 | -0.22 | 0.96 | inactive
Oser1 (GeneID 66680) | no change with or without drug | -1.69 | -1.01 | -1.01 | 0.79 | inactive
Nopchap1 (GeneID 28109) | no change with or without drug | 0.34 | 0.84 | -0.11 | 0.97 | inactive
Gfap (GeneID 14580) | no change with or without drug | 0.22 | -0.51 | 0.67 | 0.96 | inactive
Platr26 (GeneID 381371) | no change with or without drug | 0.9 | 0.84 | 0.45 | 1.02 | inactive
Mslnl (GeneID 328783) | no change with or without drug | 1.01 | 1.35 | 0.22 | 1.03 | inactive
Ptpn23 (GeneID 104831) | no change with or without drug | 0.34 | -0.17 | 0.56 | 0.97 | inactive
Spop (GeneID 20747) | no change with or without drug | 1.57 | 0.84 | 1.12 | 1.08 | inactive
Las1l (GeneID 76130) | low cell count without drug only | -0.67 | -2.19 | 1.01 | 0.88 | inactive
Dpysl4 (GeneID 26757) | no change with or without drug | -0.9 | 0.84 | -1.35 | 0.86 | inactive
Unc93b1 (GeneID 54445) | no change with or without drug | -1.57 | -0.51 | -1.24 | 0.8 | inactive
Stk31 (GeneID 77485) | no change with or without drug | -0.34 | -0.84 | 0.34 | 0.91 | inactive
Mkln1 (GeneID 27418) | high cell count without drug only | 0.79 | 2.19 | -0.45 | 1.01 | inactive
Cbx6 (GeneID 494448) | no change with or without drug | -1.91 | -0.51 | -1.57 | 0.77 | inactive
Cbx6 (GeneID 494448) | high cell count without drug only | 1.57 | 2.02 | 0.34 | 1.08 | inactive
Adam22 (GeneID 11496) | no change with or without drug | -0.45 | -0.51 | 0 | 0.9 | inactive
Nat8f5 (GeneID 69049) | no change with or without drug | -1.24 | -1.18 | -0.45 | 0.83 | inactive
Cyba (GeneID 13057) | no change with or without drug | 0.67 | -0.51 | 1.24 | 1 | inactive
H2-Q10 (GeneID 15007) | no change with or without drug | 0.45 | -0.84 | 1.24 | 0.98 | inactive
Pipox (GeneID 19193) | low cell count with doxorubicin only | -2.02 | -1.85 | -0.9 | 0.76 | active
Lingo1 (GeneID 235402) | no change with or without drug | -0.11 | -1.52 | 1.12 | 0.93 | inactive
Omd (GeneID 27047) | no change with or without drug | 0.45 | 0.84 | 0 | 0.98 | inactive
Anp32e (GeneID 66471) | no change with or without drug | -0.9 | -0.51 | -0.56 | 0.86 | inactive
Dpep2 (GeneID 319446) | no change with or without drug | 0.67 | -0.34 | 1.12 | 1 | inactive
Slc3a2 (GeneID 17254) | no change with or without drug | -0.9 | -0.67 | -0.34 | 0.86 | inactive
Gigyf1 (GeneID 57330) | no change with or without drug | -1.57 | -1.52 | -0.56 | 0.8 | inactive
Lce1i (GeneID 76585) | high cell count with doxorubicin only | 2.47 | 0.67 | 2.14 | 1.16 | inactive
Ift172 (GeneID 67661) | no change with or without drug | -0.11 | 0.84 | -0.56 | 0.93 | inactive
Slc25a10 (GeneID 27376) | no change with or without drug | -0.45 | 0.67 | -0.79 | 0.9 | inactive
Usp22 (GeneID 216825) | no change with or without drug | -0.67 | 0.51 | -0.9 | 0.88 | inactive

Ordered by “viability z-score with doxorubicin” (highest first): some entries from above
target gene | combined z-score class | viability z-score with doxorubicin | viability z-score without drug | z-score of drug to no-drug ratio | doxorubicin viability vs non-targeting | Outcome
Dpep2 (GeneID 319446) | no change with or without drug | 0.67 | -0.34 | 1.12 | 1 | inactive
Omd (GeneID 27047) | no change with or without drug | 0.45 | 0.84 | 0 | 0.98 | inactive
Anp32e (GeneID 66471) | no change with or without drug | -0.9 | -0.51 | -0.56 | 0.86 | inactive
Slc3a2 (GeneID 17254) | no change with or without drug | -0.9 | -0.67 | -0.34 | 0.86 | inactive
